PubChem BioAssay AID529 (NMMLSC, 2006)
The whole screen tested about 24,000 compounds, of which about 50 (0.2%) were called active. Inconclusive results, whose numbers are uncertain, are shown with a selection of clear calls.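 The calls were made as follows: active = inhibition above 50%; inconclusive = compound itself fluorescent, judged against control cell fluorescence; inactive = the rest.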

Protein sequences, listed by entry. Tags and fused reporters are not part of them.
UniProt P13612, whole entry, looked up: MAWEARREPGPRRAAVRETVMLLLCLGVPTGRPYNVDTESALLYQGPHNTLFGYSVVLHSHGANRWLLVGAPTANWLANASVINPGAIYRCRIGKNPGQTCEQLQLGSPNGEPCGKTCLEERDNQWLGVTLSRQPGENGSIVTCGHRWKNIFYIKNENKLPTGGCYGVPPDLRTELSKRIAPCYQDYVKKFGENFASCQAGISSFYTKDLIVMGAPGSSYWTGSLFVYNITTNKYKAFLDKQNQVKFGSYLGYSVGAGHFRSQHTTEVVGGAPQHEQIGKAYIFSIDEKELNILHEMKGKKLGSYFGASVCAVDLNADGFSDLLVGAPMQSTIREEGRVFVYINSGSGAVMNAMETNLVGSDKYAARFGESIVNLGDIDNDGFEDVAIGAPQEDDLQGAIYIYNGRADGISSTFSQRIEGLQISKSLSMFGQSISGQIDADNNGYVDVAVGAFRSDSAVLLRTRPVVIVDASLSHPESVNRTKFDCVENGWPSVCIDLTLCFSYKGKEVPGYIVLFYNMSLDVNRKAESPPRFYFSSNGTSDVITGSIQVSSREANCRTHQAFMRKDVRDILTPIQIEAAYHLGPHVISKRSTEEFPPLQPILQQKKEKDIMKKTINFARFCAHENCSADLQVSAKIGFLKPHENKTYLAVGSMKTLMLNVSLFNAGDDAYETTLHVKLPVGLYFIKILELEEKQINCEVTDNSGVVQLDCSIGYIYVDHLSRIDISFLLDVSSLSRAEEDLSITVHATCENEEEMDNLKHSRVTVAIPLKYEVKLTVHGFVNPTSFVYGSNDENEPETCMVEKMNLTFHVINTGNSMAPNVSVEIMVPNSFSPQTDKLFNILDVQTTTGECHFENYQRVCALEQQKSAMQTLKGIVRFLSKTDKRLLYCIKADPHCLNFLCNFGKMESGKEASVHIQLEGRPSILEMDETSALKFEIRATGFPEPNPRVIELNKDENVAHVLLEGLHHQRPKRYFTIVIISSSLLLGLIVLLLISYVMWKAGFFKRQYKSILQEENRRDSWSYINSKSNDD

Target: Integrin alpha-4 (Homo sapiens) (UniProt P13612)
Test: blockers of LDV-FITC ligand binding on VLA-4 – Jurkat cells, Mn2+ activated, primary screen (AID 529);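 as to inhibition: 0% = Mn2+ stimulated cells lacking compound and 100% = ligand binding without Mn2+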
Details: LDV-FITC binding with Mn2+, flow cytometry; stronger effect = higher value, screened at 10 µM (by protocol), 100% = Mn2+-driven binding gain fully reversed unless noted

Compound | inhibition
O=C(c1cccn2c(=O)c3ccc(Cl)cc3nc12)N1CCN(Cc2ccc3c(c2)OCO3)CC1 | inactive: 10%
CCCCOc1ccc(CSc2n[nH]c(C)n2)cc1 | inconclusive
Cc1cc(OCC(=O)Nc2cc(-c3nn4c(C)nnc4s3)ccc2C)ccc1Cl | inconclusive
Cc1ccc(C)c(N2CCN(CC(=O)Nc3ccc4[nH]c(=O)[nH]c4c3)CC2)c1 | inconclusive
O=C(CSc1nnc(CNC(=O)c2ccco2)o1)c1ccc(Cl)cc1 | inconclusive
O=C(NCCc1ccc(Cl)cc1)c1nnc(Cc2ccc(Cl)cc2)o1 | inconclusive
COc1cccc(-c2nn(C)c3sc(C(=O)NCc4ccc(C)o4)cc23)c1 | inconclusive
CCC(C)NC(=O)C1CCC(=O)N(c2ccc3c(c2)OCO3)C1c1ccc(OC)cc1 (stereo not given) | inconclusive
CCCCC(=O)NCCc1cc2ccc(OC)cc2[nH]c1=O | inconclusive
CCCCCn1c(NCc2ccco2)nc2ccccc21 | inconclusive
O=C(CC1N=C2c3ccccc3N=C(SCc3ccc(F)cc3)N2C1=O)NCc1ccco1 (stereo not given) | inconclusive
COc1ccccc1OCC(=O)NCC1CCCCC1 | inactive: -13.5%
CC1CCCCC1NC(=O)c1nnc(Cc2ccc(Cl)cc2)o1 (stereo not given) | inconclusive
O=C1CSc2ccccc2N1Cc1ccccc1F | inconclusive
CC(C)(C)c1ccc(-c2nnc3sc(-c4ccccn4)nn23)cc1 | inconclusive
Cc1ccc2cc3cc(C(=O)NCCCN4CCCCCC4)oc3nc2c1 | inconclusive
CCOc1ccc(C2c3c(oc4ccccc4c3=O)C(=O)N2c2ccccn2)cc1OC (stereo not given) | inconclusive
COC(=O)c1ccc2c(c1)N(Cc1ccccc1F)C(=O)c1ccccc1S2=O (stereo not given) | inconclusive
O=c1cc(CSc2ccccn2)c2ccccc2[nH]1 | inconclusive
CCCCn1c(-c2nonc2NC(=O)c2ccccc2Cl)nc2ccccc21 | inconclusive
Cn1c(=O)[nH]c(=O)c2c1nc(CN1CCN(c3ccc(F)cc3)CC1)n2CCCc1ccccc1 | inconclusive
CCOc1ccc(CC(=O)Nc2ccc(S(=O)(=O)Nc3cc(C)on3)cc2)cc1OCC | inconclusive
COc1ccc(-c2cc(C(F)(F)F)nc(N3CCN(c4ccccc4)CC3)n2)cc1OC | inactive: -7%
N#CC1=C2SCN(Cc3ccco3)CN2C(=O)CC1c1c(F)cccc1Cl (stereo not given) | inconclusive

Compound | inhibition
CCOc1ccc2nc(N3CCCCCC3)sc2c1 | inconclusive
CCOC(=O)c1ccc(N2Cc3cc(C)c(C)cc3C2)cc1O | inactive: -12.7%
COc1cccc(CNC(=O)C2CCN(S(=O)(=O)c3cccc4cccnc34)CC2)c1 | inconclusive
Cc1ccc2c(c1)NC(=O)C(CC(=O)NCCCN1CCCC1)O2 (stereo not given) | inconclusive
CCOC(=O)C1=C(C)OC(N)=C(C#N)C1c1ccoc1 (stereo not given) | inactive: -18%
COc1ccc(C2C(C(=O)NCc3cccnc3)c3ccccc3C(=O)N2C)cc1OC (stereo not given) | inactive: 4%
CC(C)CCNC(=O)c1ccc2c(c1)N(Cc1ccccc1)C(=O)CS2=O (stereo not given) | inactive: 4%
COc1ccc2nc3oc(C(=O)N4CCN(c5cccc(Cl)c5)CC4)cc3cc2c1 | inconclusive
COc1ccccc1N1CCN(C(=O)c2cc3c(-c4ccc(Cl)cc4)nn(C)c3s2)CC1 | inconclusive
Cc1ccc(N(CC(=O)N2CCN(C3CCCCC3)CC2)S(=O)(=O)c2cccnc2)cc1 | inactive: -12%
CC(=O)NCCn1c(SCC(=O)c2ccccc2)nc2ccccc2c1=O | inconclusive
CC(C)(C)c1ccc(S(=O)(=O)N2CCN(CCC#N)CC2)cc1 | inconclusive
Cc1ncc(CO)c2cc(C(N)=O)c(=Nc3ccccc3)oc12 | inconclusive
CCCOc1ccc2oc(=O)c3c(c2c1)CCCN3C(=O)CN1CCCC(C(=O)OCC)C1 (stereo not given) | inconclusive
CCc1c(C)nc(SCCOc2ccc(OC)cc2)[nH]c1=O | inconclusive
CCc1c(C#N)c(SCc2c(C)noc2C)nc2c1C(=O)CC(C)(C)C2 | inconclusive
Cc1cc(N2C(=O)C3C4C=CC(C4)C3C2=O)ccc1Br (stereo not given) | inactive: -6%
Cc1cc(C)nc(NC(=O)c2ccc(OC(C)C)cc2)n1 | inconclusive
CCCCN(Cc1cc2cc(OC)ccc2[nH]c1=O)C(=O)c1ccccn1 | inconclusive
O=S(=O)(CCOc1ccccc1)c1nc2ccccc2[nH]1 | inactive: -29%
Cc1ccc2[nH]c3c(N4CCc5ccccc5C4)ncnc3c2c1 | inconclusive
CCc1cc2c(=O)c(-c3cnn(-c4ccccc4)c3)coc2c(CN2CCOCC2)c1O | inconclusive
O=C(c1ccc2c(=O)n(Cc3ccco3)c(=S)[nH]c2c1)N1CCN(c2ccccc2)CC1 | inconclusive
CCOC(=O)Cc1nnc2c(Nc3ccccc3F)nc3nonc3n12 | inconclusive

Two compounds picked at random from the list so far, as already listed:
Compound | inhibition
CCc1c(C#N)c(SCc2c(C)noc2C)nc2c1C(=O)CC(C)(C)C2 | inconclusive
CCc1c(C)nc(SCCOc2ccc(OC)cc2)[nH]c1=O | inconclusive

More results:

Compound | inhibition
COc1ccc(-c2nc(CSCC(=O)N3CCN(C4CCCCC4)CC3)c(C)o2)cc1OC | inactive: -9%
Cn1c(Cn2c(=O)sc3ccccc32)nnc1SCC(=O)Nc1cccc(F)c1 | inconclusive
Cn1cccc1Cc1nnc(SCC(=O)Nc2ccc(Cl)cc2)n1-c1ccc(F)cc1 | inactive: 3%
Cc1ccc(F)cc1NC(=O)C1CCCN(c2ncccn2)C1 (stereo not given) | inconclusive
Cc1ccc2c(c1)NC(=O)C(CC(=O)NCCCN1CCN(c3cc(C)ccc3C)CC1)O2 (stereo not given) | inconclusive
O=C1CC(c2ccccc2)CC(O)=C1C=NCc1ccco1 (stereo not given) | inconclusive
O=C(CCCCCn1c(=O)[nH]c2ccccc2c1=O)NCCCN1CCN(c2ccccc2F)CC1 | inactive: 10%
CCOC(=O)c1[nH]c(C)c(CN(Cc2ccco2)C(=O)C(F)(F)F)c1C | inactive: -1%
CCN1CCN(C(=O)c2cc3cc4cc(OC)ccc4nc3s2)CC1 | inconclusive
COc1cc(-c2nnc(SCc3c(F)cccc3Cl)o2)cc(OC)c1OC | inconclusive
CCCOc1ccc(C2c3c(oc4cc(C)c(C)cc4c3=O)C(=O)N2CCCN(C)C)cc1OCC (stereo not given) | inconclusive
O=C1C2CC=C(Cl)CC2C(=O)N1CC1Cc2ccccc2CO1 (stereo not given) | inconclusive
Cc1ccc(NC(=O)C2CCCN(S(=O)(=O)c3c(C)noc3C)C2)c(C)c1 (stereo not given) | inactive: -21% [stronger effect = higher value, 100% = Mn2+-driven binding gain fully reversed, screened at 10 µM (by protocol)]
O=C(N1CCOCC1)N1CCC(NC(=O)C23CC4CC(CC(C4)C2)C3)CC1 | inactive: -5%
CCOC(=O)C1CCCN(CCCc2ccccc2)C1 (stereo not given) | inactive: -13%
Cc1cnc(C(=O)Nc2ccccc2-n2cccc2)cn1 | inconclusive
COC(=O)c1cc(-c2ccc(Br)cc2)on1 | inconclusive
COC(=O)C1=C(C)OC(N)=C(C#N)C1c1c(C)nn(-c2ccccc2)c1Cl (stereo not given) | inconclusive
CC(C)n1ncc(C(N)=O)c1N | inactive: 18%
COCCOC(=O)C1=C(C)NC(=O)N(C(C)=O)C1c1ccc(Cl)cc1 (stereo not given) | inconclusive
Cc1ccc(CNC(=O)CN2C(=O)COc3ccc(C)cc32)cc1 | inactive: -11%
CC1CC(C)CN(C(=O)C2CCCN(S(=O)(=O)c3cccc4nonc34)C2)C1 (stereo not given) | inconclusive
COc1ccc(S(=O)(=O)Nc2c(C)ccc3nsnc23)cc1OC | inactive: -9%
O=C(Nn1cnc2ccccc2c1=O)c1ccccc1Cl | inconclusive

Look-ups from the entries so far:
Under inhibition, Cn1cccc1Cc1nnc(SCC(=O)Nc2ccc(Cl)cc2)n1-c1ccc(F)cc1 is entered as inactive: 3%
Under inhibition, O=C(CCCCCn1c(=O)[nH]c2ccccc2c1=O)NCCCN1CCN(c2ccccc2F)CC1 is entered as inactive: 10%
Under inhibition, O=C1C2CC=C(Cl)CC2C(=O)N1CC1Cc2ccccc2CO1 (stereo not given) is entered as inconclusive

The listing continues.

Compound | inhibition
COc1cc(NC(=O)c2nnn(Cc3ccc(SC)cc3)c2N)cc(OC)c1 | inactive: 10%
C=CCOC(=O)C1=C(C)OC(N)=C(C#N)C1c1ccccc1F (stereo not given) | inactive: 5%
CN1CCc2nc(SCCOc3ccccc3)c(C#N)cc2C1 | inconclusive
CCOC(=O)N1CCN(c2c(N3CCN(c4ccccn4)CC3)c(=O)c2=O)CC1 | inactive: -6%
CCn1c(C(=O)N2CCC(C(=O)NCc3cccs3)CC2)cc2sccc21 | inconclusive
CCOc1cc(C2C(C(=O)c3ccccc3)=C(C(=O)OC)Nc3nnnn32)ccc1O (stereo not given) | inconclusive
CCCCNC(=O)CS(=O)Cc1nc(-c2cccs2)oc1C (stereo not given) | inconclusive
Cc1ccc(NC(=O)c2ccc(F)c(S(=O)(=O)N3CCOCC3)c2)cc1F | inconclusive
Cn1c(=O)oc2cc(S(=O)(=O)NCCC(=O)N3CCc4ccccc43)ccc21 | inconclusive
O=C(CCn1[nH]c(=O)c2ccccc2c1=O)NCCO | inconclusive
OCCNc1nc(OCC(F)(F)F)nc(N2CCN(C34CC5CC(CC(C5)C3)C4)CC2)n1 | inconclusive
O=C(CNS(=O)(=O)c1ccccc1)NCc1ccccn1 | inactive: -7%
C=CCOc1cccc(C2c3c(oc4ccc(F)cc4c3=O)C(=O)N2CCCN2CCOCC2)c1 (stereo not given) | inconclusive
Cc1ccc(C)c(N2CCN(C(=O)c3cc4ccccc4oc3=O)CC2)c1 | inconclusive
CCCCCSc1nncc(=O)[nH]1 | inconclusive
Cc1cc(C)c2c(-n3cccc3)c(C(=O)O)sc2n1 | inconclusive
Cc1ccc2c(c1)NC(=O)C(CC(=O)Nc1ccc(CN3CCC(C)CC3)cc1)O2 (stereo not given) | inconclusive
COC(=O)c1ccc(OCC(=O)Nc2nn(-c3ccccc3)nc2C(N)=O)cc1 | inconclusive
CCn1nnc(NC(=O)c2ccc(-c3ccc(Cl)cc3)o2)n1 | inconclusive
CCn1cc(-c2cc(C(F)(F)F)n3nc(C(=O)O)cc3n2)c(C)n1 | inactive: 2%
O=C1CCC(C(=O)NC2(C(=O)NC3CCCCC3)CCCCC2)N1 (stereo not given) | inactive: -13%
CCOC(=O)c1c(NC(=O)c2cccs2)sc(C)c1C | inactive: -11.5% [stronger effect = higher value, 100% = Mn2+-driven binding gain fully reversed, screened at 10 µM (by protocol)]
COc1ccc(Cl)cc1N(C)C(=O)CCNC(=O)Cn1cnc2ccccc2c1=O | inconclusive
